From ChEMBL document CHEMBL3988442, “University of Dundee, Small-Polar-MMV Screening Library” (2021).

Amino acid sequences for entries named in this document (tags omitted). Residues count along the entry.
UniProt P9WFT3, whole entry: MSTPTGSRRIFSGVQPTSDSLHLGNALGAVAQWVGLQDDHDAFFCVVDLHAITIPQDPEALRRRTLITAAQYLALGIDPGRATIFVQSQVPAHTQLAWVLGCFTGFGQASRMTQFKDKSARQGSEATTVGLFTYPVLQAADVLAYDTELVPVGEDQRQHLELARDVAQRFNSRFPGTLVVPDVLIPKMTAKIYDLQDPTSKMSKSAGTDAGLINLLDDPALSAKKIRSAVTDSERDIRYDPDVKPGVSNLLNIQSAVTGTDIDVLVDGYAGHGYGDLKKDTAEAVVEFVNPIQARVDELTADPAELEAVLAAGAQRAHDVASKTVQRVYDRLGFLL
UniProt P9WPC5, whole entry: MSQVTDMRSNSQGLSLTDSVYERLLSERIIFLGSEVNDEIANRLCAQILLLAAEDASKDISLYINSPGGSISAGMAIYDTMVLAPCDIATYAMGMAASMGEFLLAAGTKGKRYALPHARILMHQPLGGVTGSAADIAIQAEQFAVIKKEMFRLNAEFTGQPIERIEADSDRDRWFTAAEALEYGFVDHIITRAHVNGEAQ
UniProt P9WPC3, whole entry partner: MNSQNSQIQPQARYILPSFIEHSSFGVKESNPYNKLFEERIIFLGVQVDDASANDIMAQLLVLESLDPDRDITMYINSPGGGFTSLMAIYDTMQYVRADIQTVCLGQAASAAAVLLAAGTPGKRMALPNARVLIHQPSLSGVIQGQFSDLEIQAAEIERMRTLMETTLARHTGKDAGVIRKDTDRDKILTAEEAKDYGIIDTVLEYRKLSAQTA
UniProt Q8IDJ8, 1-583: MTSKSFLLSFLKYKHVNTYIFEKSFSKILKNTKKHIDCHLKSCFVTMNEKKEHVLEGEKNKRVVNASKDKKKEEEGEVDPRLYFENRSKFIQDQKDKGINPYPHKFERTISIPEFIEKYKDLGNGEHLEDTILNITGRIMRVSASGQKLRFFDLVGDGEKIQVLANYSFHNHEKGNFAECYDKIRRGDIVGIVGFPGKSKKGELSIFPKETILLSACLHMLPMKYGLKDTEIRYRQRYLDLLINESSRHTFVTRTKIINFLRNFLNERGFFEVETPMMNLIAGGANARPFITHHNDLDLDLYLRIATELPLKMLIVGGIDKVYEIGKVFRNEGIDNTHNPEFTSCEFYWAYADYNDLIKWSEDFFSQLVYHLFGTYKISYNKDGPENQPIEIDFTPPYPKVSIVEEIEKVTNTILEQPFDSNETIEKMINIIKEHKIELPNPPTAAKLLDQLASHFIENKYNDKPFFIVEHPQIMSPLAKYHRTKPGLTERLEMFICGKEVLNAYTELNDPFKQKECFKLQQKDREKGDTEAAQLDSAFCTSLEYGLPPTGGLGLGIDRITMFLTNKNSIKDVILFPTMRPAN
UniProt P9WNZ1, whole entry: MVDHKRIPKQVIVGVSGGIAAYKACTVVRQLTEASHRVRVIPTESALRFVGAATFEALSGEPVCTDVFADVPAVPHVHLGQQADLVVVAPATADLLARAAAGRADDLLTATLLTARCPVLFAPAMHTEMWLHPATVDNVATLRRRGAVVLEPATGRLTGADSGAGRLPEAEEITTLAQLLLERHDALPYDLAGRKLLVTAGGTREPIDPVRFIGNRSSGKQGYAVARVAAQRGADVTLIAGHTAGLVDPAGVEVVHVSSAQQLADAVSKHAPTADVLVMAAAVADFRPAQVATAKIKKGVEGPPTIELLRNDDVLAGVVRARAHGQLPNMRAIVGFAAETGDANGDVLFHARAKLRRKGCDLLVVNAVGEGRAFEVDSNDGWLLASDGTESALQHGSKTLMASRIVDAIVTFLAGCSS

The filed quantity is “Percent Effect” (%). The controls that fix the scale are not given in the record; negative values are as filed. The compounds are a random part of those screened. Two or more numbers in one place are separate tests of the same structure; such repeats can differ widely. A dash means the value is not listed here; it may have been measured.

MtTrpRS: 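Tryptophan-tRNA ligase, Mycobacterium tuberculosis (UniProt P9WFT3). Enzyme assay of tryptophanyl-tRNA synthetase; the read-out is not stated. Concentration: 10 µM. Direction is not recorded; retested compounds ran higher, which suggests that high means inhibition. Size under these conditions: about 65,000 compounds, about 64 of them at 50% or above in at least one test.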
ClpP1P2: 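ClpP1P2, Mycobacterium tuberculosis (UniProt P9WPC5 and UniProt P9WPC3). Protease assay of ClpP1P2, read by the AMC dye that it sets free. Concentration: 50 µM. Direction is inferred from only a few compounds that gave an IC50; most scored high, so higher reads as stronger inhibition. Most other retested compounds had strongly negative values. Size under these conditions: about 69,000 compounds, about 10 of them at 50% or above in at least one test.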
Leishmania in macrophages: 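Cell assay of Leishmania donovani living inside macrophages; the read-out is not stated. Concentration: 30 µM. Higher reads as stronger inhibition (inferred: compounds with an IC50 in retests scored well above the rest). Size under these conditions: about 69,000 compounds, about 1,000 of them at 50% or above in at least one test.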
PfKRS1: 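Lysine-tRNA ligase, Plasmodium falciparum 3D7 (UniProt Q8IDJ8). Enzyme assay of the cytosolic lysyl-tRNA synthetase in 384-well plates, read by luminescence. Concentration: 30 µM. Direction is inferred from only a few compounds that gave an IC50; most scored high, so higher reads as stronger inhibition. About 69,000 compounds were tested under these conditions; 0.071% (about 49) showed 50% or more at least once.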
CoaBC: 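Coenzyme A biosynthesis protein CoaBC, Mycobacterium tuberculosis (UniProt P9WNZ1). Enzyme assay of CoaBC with a phosphate dye (Biomol Green) read at 650 nm. Tested at 30 µM. Direction is inferred from only a few compounds that gave an IC50; most scored high, so higher reads as stronger inhibition. Most strong results did not repeat in a second test. About 67,000 compounds were tested under these conditions; 0.06% (about 40) showed 50% or more at least once.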

structure	MtTrpRS	ClpP1P2	Leishmania in macrophages	PfKRS1	CoaBC
CNC(=O)[C@H]1C[C@@H]2CN(C(=O)c3ccoc3)C[C@@H]2N1S(C)(=O)=O	-6.294%	-7.925%	-	-3.043%	0.6165%
CN(CCc1nc2ccccc2c(=O)[nH]1)CCC(F)(F)F	0.374%	3.964%	2.561%	3.733%	7.495%
CC1CCN(S(=O)(=O)c2cccnc2)c2ccccc2S1 (centres undefined)	-1.242%	-12.38%	21.09%	4.395%	-15.94%
Cc1c(C(=O)N2CCS(=O)(=O)CC2)nnn1-c1ccc2ncccc2c1	-2.667%	-11.95%	5.375%	4.373%	9.709%
CCNc1cc2c(nn1)CCN(C(=O)Cc1c(C)nn(C)c1C)C2	-0.5136%	-19.89%	-2.349%	-0.1148%	-0.3831%
O=C(O)C(F)(F)F.O=C(c1ccc(F)cc1)N1CCC2(CCN(Cc3ccccn3)C2=O)C1 (centres undefined)	-	-	29.64%	-	-
N#CCCN(C(=O)COC1CCCC1)C1CC1	0.3027%	-4.29%	7.347%	-3.373%	-
COCc1nc(Cn2c(C)cc(C(F)(F)F)cc2=O)no1	22.87%	-5.095%	29.25%	-0.163%	2.469%
CCc1noc(C)c1-c1nc(Cc2cccs2)nn1C1CCN(C)CC1	1.27%	-4.038%	8.236%	7.129%	-3.194%
CCCc1ccc(OCCNCc2ccco2)c(OC)c1.Cl	-	-	65.86%	-	-
Cn1cc(C(=O)CC2CCCN2C(=O)c2ccc(Cl)o2)cn1 (centres undefined)	2.384%	-1.904%	24.51%	-2.439%	-0.3659%
O=C(C1CCC1)N1C[C@@H]2CC[C@H](C1)N(S(=O)(=O)c1ccccc1)C2	1.255%	-8.051%	-	2.847%	3.398%
CN1C[C@@H](F)[C@@H](OCc2nc3ccccc3[nH]2)C1	-6.941%	-14.37%	21.01%	4.978%	2.947%
Cc1cnn(CC2CCCN2Cc2nc(N)c3ccccc3n2)c1 (centres undefined)	57.88%	-14.53%	-26.53%	-5.047%	-2.273%
Cc1ccccc1OCC1CCCN(C(=O)CNC(=O)N(C)C)C1 (centres undefined)	9.781%	-3.328%	-29.6%	9.152%	-1.29%
COc1ccc(CC(=O)N2CC[C@@H](OC)[C@@H]2Cc2cccnc2)cc1	-	1.19%	-	2.698%	2.788%
CN(CC(=O)NC(N)=O)CC1(c2ccc(Br)cc2)CC1	1.938%	-4.081%	-0.8674%	3.667%	-0.3468%
CCc1ccc(C(=O)NC2CCN(c3ccn(C)n3)C2)o1 (centres undefined)	-1.234%	1.889%	24.54%	-2.795%	2.086%
COCCN1CCC2(CC1)CN(C(=O)C1CC1)c1ccc(F)cc12.O=C(O)C(F)(F)F	-	-	9.027%	-	-
CCc1nc(-c2noc3ccc(C(=O)NCCN(C)C)cc23)co1	-5.636%	-0.8092%	30.75%	-0.06095%	-3.623%
CC(C)Cn1ccnc1CNC(=O)NC(C)(C)c1nccs1	12.21%	9.51%	13.1%	-0.7139%	-
O=C1CC[C@]2(CC[C@@H](NCc3cccnc3)CC2)N1Cc1ccccc1	-0.1454%	9.66%	-	3.61%	6.049%
Cc1c(Cl)c(C(=O)NCc2ccc(F)cc2)nn1C	3.018%	-1.545%	1.335%	9.466%	2.908%
Cc1ccc(NC2CCN(C(=O)c3cc4c(s3)CCC4)CC2)nn1	-5.304%	-29.17%	10.79%	2.247%	3.394%
N#Cc1cc(S(N)(=O)=O)ccc1N1CCc2c(Cl)cccc2C1	0.2721%	-10.6%	-29.84%	2.744%	0.6289%
CC(C)CN1CCn2nc(CNc3ncnc4[nH]cnc34)cc2C1	17%	25.19%	3.938%	0.03554%	2.526%
O=C(c1cc(COc2ccc3c(c2)OCO3)[nH]n1)N1CCSCC1	3.367%	-14.61%	8.34%	2.886%	0.1212%
CN(C)C(=O)CO[C@H]1CN(Cc2ccsc2)[C@@H]2COC[C@H]12	-	2.642%	-	4.478%	-1.707%
Cc1cccc2c1cnn2CCC(=O)NCC(=O)N(C)C	-4.221%	-7.744%	-1.334%	0.9913%	4.711%
CCCc1n[nH]c(C2CN(C(=O)CCn3ccccc3=O)CCO2)n1 (centres undefined)	-2.13%	-1.859%	-0.187%	-1.226%	11.3%
NC(=O)CCc1cccc(C2CCNCC2)n1	-5.774%	20.2%	-	0.77%	2.138%
Cc1nn(C)c(N2CCOCC2)c1CNC1CCOc2ccccc21 (centres undefined)	2.754%	-7.15%	28.59%	6.056%	2.057%
CC(C)CN1C(=O)C2(CCN(Cc3ccoc3)C2)c2ccccc21.O=C(O)C(F)(F)F (centres undefined)	-	-	-1.91%	-	-
CC(=O)N1CC[C@]2(O)CCN(Cc3nc(C)c[nH]3)C[C@@H]2C1	2.102%	12.91%	-	3.558%	0.6452%
CC(C)C(=O)N1CCN(CCOc2cccc(C#N)c2)CC1	0.6053%	-4.548%	0.1793%	0.8618%	6.452%
Cc1[nH]ccc1C(=O)N1CCN(C)C2(CCC(=O)N(C)CC2)C1 (centres undefined)	-11.75%	-6.406%	-5.189%	-0.1397%	-1.481%
O=C(O)C(F)(F)F.O=C(O)C(F)(F)F.[H][C@@]12CCN(Cc3ccc(C)o3)C[C@]1([H])OCCN(Cc1cccnc1)C2=O	-	-	27.45%	-	-
Cc1cc(C(C)NC(=O)CCn2nnc3ccccc3c2=O)c(C)o1 (centres undefined)	-1.923%	-2.103%	12.99%	1.944%	-3.931%
CC(C(=O)N1CCOCC1)n1cc(Br)cn1 (centres undefined)	-0.6477%	-5.271%	-40.18%	-3.619%	1.155%
CCc1ccc(C2CC(=O)Nc3n[nH]cc32)o1 (centres undefined)	-3.625%	5.089%	0.8363%	3.827%	4.545%
O=C(O)C(F)(F)F.O=C(O)C(F)(F)F.O=C(O)C(F)(F)F.[H][C@@]12COC[C@]1(COc1ccccn1)CN(Cc1cccnc1OC)C2	-	-	1.617%	-	-
O=C(C1CC1)N(CCc1ccccc1)C1CCOC1 (centres undefined)	0.3666%	0.01963%	16.72%	6.804%	2.764%
Cn1ccc(C(=O)N2CCCC2c2cc(CCO)[nH]n2)n1 (centres undefined)	-3.59%	-13.17%	24.36%	1.46%	0%
COCC1CN(Cc2ccc(C)o2)Cc2cnn(CC3CCOCC3)c21.O=C(O)C(F)(F)F.O=C(O)C(F)(F)F (centres undefined)	-	-	-32.2%	-	-
Cc1ccc(C(=O)NS(=O)(=O)c2ccccc2Cl)c(=O)[nH]1	11.28%	-11.64%	-21.39%	-0.6459%	4.337%
O=C(c1cccs1)N1CCOCC2(C1)CN(c1ccccc1)C(=O)CO2 (centres undefined)	-9.486%	-21.47%	-11.44%	-0.401%	2.343%
CCOc1ccc2c(c1)CN(Cc1nc3c(cnn3C)c(=O)[nH]1)CC2	-6.08%	-10.76%	12.92%	0.4745%	5.867%
COCC(=O)N1CCc2c(CNS(C)(=O)=O)n[nH]c2C1	-5.669%	-2.317%	13.5%	10.91%	0.9677%
CC(C)Nc1ncnc2c1CCNCC2	-3.876%	1.004%	4.808% and 37.73%	3.904%	-4.863%
CNC(=O)CN1CCOCC2(CN(CCC(F)(F)F)CCO2)C1 (centres undefined)	0.9682%	-12.82%	-	-1.005%	-1.253%
CCn1nc(C)c(CCn2ccnc2-c2cc3n(n2)CCNC3)c1C	-2.139%	-8.475%	25.17%	3.571%	-0.6536%
CCOCC(O)CN1CCN(C(=O)c2cc(C)ccc2OC)CC1 (centres undefined)	33.94%	-5.037%	18.46%	4.896%	4.779%
CC(C)Cn1ncc2cc(C(=O)N(C)Cc3cccc(O)c3)cnc21	2.716%	-1.896%	8.554%	2.954%	-1.716%
CN(Cc1ccccc1)C1COC2(CCN(Cc3nccs3)CC2)C1 (centres undefined)	2.623%	-2.583%	-	-0.5458%	2.411%
Cc1nc(CN2CCO[C@H]3CN(C(=O)c4cccn4C)C[C@H]32)cs1	-4.056%	-3.461%	-	1.517%	0.6536%
Cc1ccc(CN2CCn3c(CNC(=O)c4cccn4C)cnc3C2)s1	2.116%	13.02%	-	6.418%	5.537%
COCCN1CC[C@@H]2OC(COCC(=O)N3CCCC3)CC[C@@H]21 (some centres undefined)	0.9009%	-17.68%	-	5.725%	2.096%

Repeated from the top, 7 entries:

{"structure": "CNC(=O)[C@H]1C[C@@H]2CN(C(=O)c3ccoc3)C[C@@H]2N1S(C)(=O)=O", "MtTrpRS": -6.294, "ClpP1P2": -7.925, "PfKRS1": -3.043, "CoaBC": 0.6165}
{"structure": "CN(CCc1nc2ccccc2c(=O)[nH]1)CCC(F)(F)F", "MtTrpRS": 0.374, "ClpP1P2": 3.964, "Leishmania in macrophages": 2.561, "PfKRS1": 3.733, "CoaBC": 7.495}
{"structure": "CC1CCN(S(=O)(=O)c2cccnc2)c2ccccc2S1", "stereo": "centres undefined", "MtTrpRS": -1.242, "ClpP1P2": -12.38, "Leishmania in macrophages": 21.09, "PfKRS1": 4.395, "CoaBC": -15.94}
{"structure": "Cc1c(C(=O)N2CCS(=O)(=O)CC2)nnn1-c1ccc2ncccc2c1", "MtTrpRS": -2.667, "ClpP1P2": -11.95, "Leishmania in macrophages": 5.375, "PfKRS1": 4.373, "CoaBC": 9.709}
{"structure": "CCNc1cc2c(nn1)CCN(C(=O)Cc1c(C)nn(C)c1C)C2", "MtTrpRS": -0.5136, "ClpP1P2": -19.89, "Leishmania in macrophages": -2.349, "PfKRS1": -0.1148, "CoaBC": -0.3831}
{"structure": "O=C(O)C(F)(F)F.O=C(c1ccc(F)cc1)N1CCC2(CCN(Cc3ccccn3)C2=O)C1", "stereo": "centres undefined", "Leishmania in macrophages": 29.64}
{"structure": "N#CCCN(C(=O)COC1CCCC1)C1CC1", "MtTrpRS": 0.3027, "ClpP1P2": -4.29, "Leishmania in macrophages": 7.347, "PfKRS1": -3.373}